Reference: doi:10.1101/2021.10.04.463079
Results are given in words; binding and its absence hold for the method and conditions named. In cells and extracts the contact can be indirect. Some entries that bind do so weakly or less than the wild type. Sequences can lack the tags named with a protein.

Protein sequences, listed by entry. Tags and fused reporters are not part of them.
UniProt P99999: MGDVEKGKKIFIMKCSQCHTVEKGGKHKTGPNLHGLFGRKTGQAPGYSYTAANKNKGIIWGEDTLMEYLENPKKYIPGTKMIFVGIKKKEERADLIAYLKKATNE

How the values were obtained:
[1] = target: T1, FLAG-tagged mouse HIGD1C (HIGD1C-Myc-DDK) (mouse) (UniProt Q76I25); assay: co-IP
T1 sequence: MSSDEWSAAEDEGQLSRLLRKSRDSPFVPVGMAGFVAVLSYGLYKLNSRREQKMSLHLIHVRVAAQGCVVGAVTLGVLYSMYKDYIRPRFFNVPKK

[2] = target: T2, FLAG-tagged human HIGD1C (HIGD1C-Myc-DDK) (human) (UniProt A8MV81); assay: co-IP
T2 sequence: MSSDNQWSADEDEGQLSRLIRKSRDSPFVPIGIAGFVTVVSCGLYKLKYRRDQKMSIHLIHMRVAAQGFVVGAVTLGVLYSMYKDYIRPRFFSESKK

Substance: cytochrome c (from UniProt P99999 1-105)
- binding [1]: binds
- binding [2]: binds
